The list shows a part of the results.
Compound: CC1Cc2ccccc2N1C(=O)C1CCCN(C1)C(=O)CCl (mixture of isomers) [TRIM25 ligand 11 (diastereomer mixture)]
Assay: probe-labelled cysteine peptide fold change vs DMSO (competition) (log2 fold change); higher = less target engagement (more negative = stronger competition)
Conditions: THP-1, incubation time: 4 h
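Also: competitive chemoproteomic profiling in live THP-1 cells with an iodoacetamide desthiobiotin (IA-DTB) probe, comparing probe-labelled peptide intensities in compound-treated cells against DMSO-treated controls.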

By UniProt entry, the sequences of proteins in these tests, tags left out. Where a name states a change or a piece, a line headed by the entry shows the natural chain unless it says otherwise.
UniProt Q9UHI6: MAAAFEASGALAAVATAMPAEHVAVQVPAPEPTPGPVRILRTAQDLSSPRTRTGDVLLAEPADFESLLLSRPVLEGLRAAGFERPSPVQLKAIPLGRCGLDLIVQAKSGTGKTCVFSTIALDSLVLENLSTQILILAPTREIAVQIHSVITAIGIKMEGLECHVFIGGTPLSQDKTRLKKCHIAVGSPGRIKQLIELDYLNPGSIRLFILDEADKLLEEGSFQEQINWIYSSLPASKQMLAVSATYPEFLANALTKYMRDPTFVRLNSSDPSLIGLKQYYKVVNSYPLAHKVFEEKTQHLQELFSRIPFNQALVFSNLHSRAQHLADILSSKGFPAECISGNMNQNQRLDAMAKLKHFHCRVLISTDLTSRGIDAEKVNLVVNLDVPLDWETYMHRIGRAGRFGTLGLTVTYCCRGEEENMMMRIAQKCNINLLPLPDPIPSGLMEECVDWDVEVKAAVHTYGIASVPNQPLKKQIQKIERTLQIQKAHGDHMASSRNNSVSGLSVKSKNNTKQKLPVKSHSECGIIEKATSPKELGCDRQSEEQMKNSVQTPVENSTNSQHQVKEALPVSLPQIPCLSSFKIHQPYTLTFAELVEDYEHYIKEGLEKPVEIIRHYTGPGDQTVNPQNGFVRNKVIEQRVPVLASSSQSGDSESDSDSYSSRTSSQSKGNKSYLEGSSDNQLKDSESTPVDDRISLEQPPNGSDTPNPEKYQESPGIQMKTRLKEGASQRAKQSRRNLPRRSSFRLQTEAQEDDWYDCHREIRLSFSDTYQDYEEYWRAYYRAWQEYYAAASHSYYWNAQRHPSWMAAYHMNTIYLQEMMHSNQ
UniProt Q5H9U9: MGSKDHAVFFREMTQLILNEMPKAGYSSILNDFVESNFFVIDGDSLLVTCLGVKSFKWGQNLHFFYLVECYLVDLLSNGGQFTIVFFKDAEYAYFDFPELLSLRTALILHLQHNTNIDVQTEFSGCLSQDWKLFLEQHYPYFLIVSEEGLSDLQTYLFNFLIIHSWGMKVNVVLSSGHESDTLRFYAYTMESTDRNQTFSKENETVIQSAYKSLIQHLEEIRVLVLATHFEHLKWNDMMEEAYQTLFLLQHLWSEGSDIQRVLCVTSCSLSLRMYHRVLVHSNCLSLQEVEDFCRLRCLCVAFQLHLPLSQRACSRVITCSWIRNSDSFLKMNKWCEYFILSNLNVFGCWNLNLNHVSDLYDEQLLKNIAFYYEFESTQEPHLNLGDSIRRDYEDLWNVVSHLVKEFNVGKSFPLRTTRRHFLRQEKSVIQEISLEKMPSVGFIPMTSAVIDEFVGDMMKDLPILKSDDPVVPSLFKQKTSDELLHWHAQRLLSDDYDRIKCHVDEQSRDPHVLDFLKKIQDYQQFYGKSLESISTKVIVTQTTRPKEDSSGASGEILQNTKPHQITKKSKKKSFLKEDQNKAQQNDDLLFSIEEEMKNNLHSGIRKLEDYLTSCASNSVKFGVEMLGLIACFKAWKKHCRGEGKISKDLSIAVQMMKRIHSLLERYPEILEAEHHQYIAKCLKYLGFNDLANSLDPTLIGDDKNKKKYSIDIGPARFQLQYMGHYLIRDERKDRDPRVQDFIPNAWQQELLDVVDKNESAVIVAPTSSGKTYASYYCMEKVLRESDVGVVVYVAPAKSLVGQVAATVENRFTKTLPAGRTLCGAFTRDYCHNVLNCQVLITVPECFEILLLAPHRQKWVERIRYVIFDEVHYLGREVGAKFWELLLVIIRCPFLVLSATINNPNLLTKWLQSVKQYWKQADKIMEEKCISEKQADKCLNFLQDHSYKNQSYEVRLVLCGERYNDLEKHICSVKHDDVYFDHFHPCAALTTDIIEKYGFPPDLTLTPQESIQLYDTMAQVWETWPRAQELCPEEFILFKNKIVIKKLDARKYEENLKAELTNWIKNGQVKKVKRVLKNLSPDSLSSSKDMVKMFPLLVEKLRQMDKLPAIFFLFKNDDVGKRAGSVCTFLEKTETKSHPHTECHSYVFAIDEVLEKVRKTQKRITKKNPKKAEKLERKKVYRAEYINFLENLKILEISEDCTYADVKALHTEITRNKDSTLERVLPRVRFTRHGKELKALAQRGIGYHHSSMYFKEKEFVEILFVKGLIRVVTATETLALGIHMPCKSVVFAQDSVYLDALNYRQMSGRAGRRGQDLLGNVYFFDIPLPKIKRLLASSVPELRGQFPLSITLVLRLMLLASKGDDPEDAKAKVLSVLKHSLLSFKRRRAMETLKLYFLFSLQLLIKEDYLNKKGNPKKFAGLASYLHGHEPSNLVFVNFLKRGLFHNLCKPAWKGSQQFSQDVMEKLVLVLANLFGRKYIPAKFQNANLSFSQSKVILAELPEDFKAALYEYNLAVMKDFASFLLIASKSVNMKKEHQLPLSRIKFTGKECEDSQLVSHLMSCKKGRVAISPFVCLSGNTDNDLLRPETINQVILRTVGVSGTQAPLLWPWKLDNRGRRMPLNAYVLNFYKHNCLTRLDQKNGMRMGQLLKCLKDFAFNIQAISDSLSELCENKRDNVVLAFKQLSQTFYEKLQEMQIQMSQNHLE
UniProt Q9UJV9: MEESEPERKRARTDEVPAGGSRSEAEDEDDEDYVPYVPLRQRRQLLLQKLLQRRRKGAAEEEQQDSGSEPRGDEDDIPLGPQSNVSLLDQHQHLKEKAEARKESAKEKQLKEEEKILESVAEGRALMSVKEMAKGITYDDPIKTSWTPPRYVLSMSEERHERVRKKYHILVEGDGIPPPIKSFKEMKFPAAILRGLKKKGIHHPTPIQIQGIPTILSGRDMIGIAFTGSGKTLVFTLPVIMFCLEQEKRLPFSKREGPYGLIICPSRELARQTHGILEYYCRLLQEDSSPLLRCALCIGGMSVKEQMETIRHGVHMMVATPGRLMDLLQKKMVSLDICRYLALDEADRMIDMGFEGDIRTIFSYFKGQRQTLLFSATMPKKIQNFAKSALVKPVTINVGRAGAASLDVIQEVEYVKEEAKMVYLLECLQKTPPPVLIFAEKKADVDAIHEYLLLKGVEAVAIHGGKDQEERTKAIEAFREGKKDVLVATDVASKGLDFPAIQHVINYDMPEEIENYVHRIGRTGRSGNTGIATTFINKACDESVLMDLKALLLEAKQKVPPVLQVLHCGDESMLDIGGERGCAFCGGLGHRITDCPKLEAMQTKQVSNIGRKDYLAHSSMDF
UniProt O95786: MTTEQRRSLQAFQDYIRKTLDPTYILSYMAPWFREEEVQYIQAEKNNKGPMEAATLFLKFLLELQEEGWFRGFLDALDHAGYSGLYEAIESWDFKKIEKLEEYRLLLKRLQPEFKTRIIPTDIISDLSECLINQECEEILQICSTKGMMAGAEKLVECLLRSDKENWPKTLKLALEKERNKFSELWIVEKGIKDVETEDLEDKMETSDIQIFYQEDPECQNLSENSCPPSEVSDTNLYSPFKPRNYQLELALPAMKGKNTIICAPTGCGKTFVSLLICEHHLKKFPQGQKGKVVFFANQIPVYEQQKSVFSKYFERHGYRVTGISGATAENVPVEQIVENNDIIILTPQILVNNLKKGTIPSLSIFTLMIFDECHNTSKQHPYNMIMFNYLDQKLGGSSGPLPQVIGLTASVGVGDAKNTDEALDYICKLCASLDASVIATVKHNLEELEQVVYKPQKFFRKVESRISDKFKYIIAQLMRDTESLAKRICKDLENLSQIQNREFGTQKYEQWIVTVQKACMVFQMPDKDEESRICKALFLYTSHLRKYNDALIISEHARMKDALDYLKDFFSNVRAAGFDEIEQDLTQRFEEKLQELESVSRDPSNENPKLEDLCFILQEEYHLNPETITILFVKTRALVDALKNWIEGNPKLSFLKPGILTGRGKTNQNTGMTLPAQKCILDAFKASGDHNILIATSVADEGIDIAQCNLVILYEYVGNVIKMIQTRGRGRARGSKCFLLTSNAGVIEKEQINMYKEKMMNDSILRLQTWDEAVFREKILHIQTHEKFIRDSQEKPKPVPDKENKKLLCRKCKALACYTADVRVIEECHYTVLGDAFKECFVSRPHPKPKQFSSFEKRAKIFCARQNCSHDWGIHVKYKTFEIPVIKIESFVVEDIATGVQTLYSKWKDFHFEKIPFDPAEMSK
UniProt O00273: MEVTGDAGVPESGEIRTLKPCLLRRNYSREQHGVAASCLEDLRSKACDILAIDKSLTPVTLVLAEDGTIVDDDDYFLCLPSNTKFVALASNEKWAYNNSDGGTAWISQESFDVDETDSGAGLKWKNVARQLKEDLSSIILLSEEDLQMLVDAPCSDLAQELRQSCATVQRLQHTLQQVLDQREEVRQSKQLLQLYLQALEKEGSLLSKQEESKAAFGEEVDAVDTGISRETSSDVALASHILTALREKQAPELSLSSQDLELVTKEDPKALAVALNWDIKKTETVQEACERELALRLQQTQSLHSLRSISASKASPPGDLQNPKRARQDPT
UniProt Q92499: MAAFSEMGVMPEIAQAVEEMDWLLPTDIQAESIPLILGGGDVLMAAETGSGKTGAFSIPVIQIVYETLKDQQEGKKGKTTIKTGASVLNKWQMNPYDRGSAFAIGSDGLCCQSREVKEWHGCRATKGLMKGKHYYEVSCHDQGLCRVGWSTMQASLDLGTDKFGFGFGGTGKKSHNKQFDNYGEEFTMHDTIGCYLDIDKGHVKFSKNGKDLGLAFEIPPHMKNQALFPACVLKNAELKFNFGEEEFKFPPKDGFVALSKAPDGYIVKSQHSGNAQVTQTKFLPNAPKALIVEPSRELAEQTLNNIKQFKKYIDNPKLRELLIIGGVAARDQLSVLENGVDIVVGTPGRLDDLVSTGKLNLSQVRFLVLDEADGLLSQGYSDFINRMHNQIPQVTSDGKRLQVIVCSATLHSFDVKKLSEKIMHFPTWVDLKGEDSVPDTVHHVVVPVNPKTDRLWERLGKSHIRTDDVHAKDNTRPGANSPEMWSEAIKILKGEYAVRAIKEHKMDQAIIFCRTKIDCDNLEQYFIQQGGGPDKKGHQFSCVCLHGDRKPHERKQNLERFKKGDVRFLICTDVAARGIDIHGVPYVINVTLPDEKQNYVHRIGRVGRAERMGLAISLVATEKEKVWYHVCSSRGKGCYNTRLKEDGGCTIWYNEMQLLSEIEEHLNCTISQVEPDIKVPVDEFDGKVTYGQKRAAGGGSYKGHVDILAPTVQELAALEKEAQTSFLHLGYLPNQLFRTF
UniProt Q9Y2R4: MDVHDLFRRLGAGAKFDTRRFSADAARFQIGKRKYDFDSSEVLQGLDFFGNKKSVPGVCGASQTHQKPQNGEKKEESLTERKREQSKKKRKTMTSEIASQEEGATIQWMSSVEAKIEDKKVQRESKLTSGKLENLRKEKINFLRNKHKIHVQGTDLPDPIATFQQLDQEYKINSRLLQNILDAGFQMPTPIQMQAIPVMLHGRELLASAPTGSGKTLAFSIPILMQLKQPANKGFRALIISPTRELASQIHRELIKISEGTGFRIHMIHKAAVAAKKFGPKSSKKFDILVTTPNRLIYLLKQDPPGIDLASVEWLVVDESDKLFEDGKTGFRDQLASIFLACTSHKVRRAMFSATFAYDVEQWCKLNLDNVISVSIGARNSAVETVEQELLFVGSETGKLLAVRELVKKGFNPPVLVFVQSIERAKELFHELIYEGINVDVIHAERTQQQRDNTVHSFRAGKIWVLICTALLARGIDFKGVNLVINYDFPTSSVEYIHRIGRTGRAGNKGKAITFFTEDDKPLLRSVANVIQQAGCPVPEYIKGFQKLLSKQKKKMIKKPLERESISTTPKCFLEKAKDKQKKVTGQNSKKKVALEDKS
UniProt Q96GQ7: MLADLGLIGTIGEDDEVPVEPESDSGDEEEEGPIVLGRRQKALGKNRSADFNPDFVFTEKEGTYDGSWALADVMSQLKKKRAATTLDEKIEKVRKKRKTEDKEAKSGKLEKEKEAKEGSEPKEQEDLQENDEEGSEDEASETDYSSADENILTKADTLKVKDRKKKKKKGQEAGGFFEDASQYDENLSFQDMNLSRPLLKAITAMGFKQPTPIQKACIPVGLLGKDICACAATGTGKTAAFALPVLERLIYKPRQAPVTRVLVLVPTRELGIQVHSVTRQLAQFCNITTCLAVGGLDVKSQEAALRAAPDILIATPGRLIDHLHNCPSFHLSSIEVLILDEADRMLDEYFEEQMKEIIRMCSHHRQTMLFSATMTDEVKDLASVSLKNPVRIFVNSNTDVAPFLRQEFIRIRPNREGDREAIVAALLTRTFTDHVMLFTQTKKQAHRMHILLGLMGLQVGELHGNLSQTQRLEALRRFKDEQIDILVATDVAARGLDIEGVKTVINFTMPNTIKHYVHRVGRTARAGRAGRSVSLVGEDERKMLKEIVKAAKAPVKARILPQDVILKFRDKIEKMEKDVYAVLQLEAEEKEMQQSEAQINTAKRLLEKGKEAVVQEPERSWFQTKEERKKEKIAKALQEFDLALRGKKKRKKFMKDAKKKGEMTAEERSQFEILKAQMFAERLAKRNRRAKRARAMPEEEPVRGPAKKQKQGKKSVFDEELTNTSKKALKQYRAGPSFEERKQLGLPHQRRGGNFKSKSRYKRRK

| Target | probe-labelled cysteine peptide fold change (10 µM) | probe-labelled cysteine peptide fold change (50 µM) |
| --- | --- | --- |
| DDX23_Q9BUQ8_677_GCDVLAK (UniProt Q9BUQ8) | -0.081 | -0.0204 |
| DDHD2_O94830_470_ESEFCSSSNTR (UniProt O94830) | -0.156 | -0.169 |
| DDX46_Q7L014_377_SWVQCGISMK (UniProt Q7L014) | 0.156 | 0.0569 |
| DDX20_Q9UHI6_98_CGLDLIVQAK (UniProt Q9UHI6) | -0.014 | -0.0217 |
| DGKH_Q86XP1_995_THLYIHHAIDLATEEVSQMQLCSQAAEELITR (UniProt Q86XP1) | 0.251 | 0.126 |
| DDX6_P26196_390_NLVCTDLFTR (UniProt P26196) | 0.136 | 0.154 |
| DENND4B_O75064_165_AAEGAGLHALGITDLCLVLPSK (UniProt O75064) | -0.0265 | 0.104 |
| DENND4A_Q7Z401_648_DASLAFFDDCVDK (UniProt Q7Z401) | 0.218 | 0.0203 |
| DDAH2_O95865_11_CSHALIR (UniProt O95865) | 0.0956 | -0.0505 |
| DGAT2_Q96PD7_312_YIGFAPCIFHGR (UniProt Q96PD7) | 0.0098 | 0.249 |
| DDX60L_Q5H9U9_938_CLNFLQDHSYK (UniProt Q5H9U9) | 0.0732 | -0.0548 |
| DENND4C_Q5VZ89_88_SPELFLCYK (UniProt Q5VZ89) | 0.0326 | 0.0835 |
| DDX41_Q9UJV9_568_QKVPPVLQVLHCGDESMLDIGGER (UniProt Q9UJV9) | -0.039 | -0.143 |
| DENND4C_Q5VZ89_1211_EDVETGLDPLSLLATECTGGK (UniProt Q5VZ89) | 0.0495 | -0.339 |
| DDI2_Q5TDH0_34_ALCELESGIPAAESQIVYAERPLTDNHR (UniProt Q5TDH0) | -0.201 | -0.101 |
| DDX58_O95786_278_TFVSLLICEHHLK (UniProt O95786) | 0.286 | -0.0366 |
| DDHD2_O94830_207_GVENISVDIHCGEPLQIDHLVFVVHGIGPACDLR (UniProt O94830) | 0.0139 | -0.0101 |
| DFFA_O00273_47_ACDILAIDK (UniProt O00273) | -0.0219 | -0.13 |
| DGKG_P49619_490_VLACGGDGTVGWILDCIDK (UniProt P49619) | 0.148 | 0.225 |
| DDX60L_Q5H9U9_986_HDDVYFDHFHPCAALTTDIIEK (UniProt Q5H9U9) | 0.0568 | 0.053 |
| DENND4C_Q5VZ89_1211_VVQREDVETGLDPLSLLATECTGGK (UniProt Q5VZ89) | -0.00268 | -0.0496 |
| DDX20_Q9UHI6_577_EALPVSLPQIPCLSSFK (UniProt Q9UHI6) | -0.0605 | -0.0239 |
| DDX17_Q92841_584_TTSSANNPNLMYQDECDR (UniProt Q92841) | 0.126 | 0.000422 |
| DDX1_Q92499_631_VWYHVCSSR (UniProt Q92499) | -0.0247 | 0.0568 |
| DDX42_Q86XP3_346_ELCQQIHAECK (UniProt Q86XP3) | 0.102 | 0.0981 |
| DDX52_Q9Y2R4_342_TGFRDQLASIFLACTSHK (UniProt Q9Y2R4) | -0.189 | 0.0165 |

| Target | probe-labelled cysteine peptide fold change (10 µM) | probe-labelled cysteine peptide fold change (50 µM) |
| --- | --- | --- |
| DDX17_Q92841_431_RCDDLTR (UniProt Q92841) | -0.0927 | -0.0682 |
| DDX1_Q92499_544_GHQFSCVCLHGDR (UniProt Q92499) | 0.0969 | 0.153 |
| DDX17_Q92841_166_GGDVCPK (UniProt Q92841) | -0.00595 | 0.0245 |
| DDX27_Q96GQ7_261_DICACAATGTGK (UniProt Q96GQ7) | 0.0314 | 0.129 |
| DDX52_Q9Y2R4_59_SVPGVCGASQTHQKPQNGEK (UniProt Q9Y2R4) | -0.011 | -0.231 |
| DDX56_Q9NY93_518_KLSSSCR (UniProt Q9NY93) | -0.00876 | -0.325 |
| DDX18_Q9NVP1_407_ANATVDGLEQGYVVCPSEKR (UniProt Q9NVP1) | -0.154 | -0.0188 |
| DDX55_Q8NHQ9_161_AEGLDLASCVR (UniProt Q8NHQ9) | 0.0838 | -0.0351 |
| DENND1A_Q8TEH3_338_IEPEEPITFCEEAFVSHYR (UniProt Q8TEH3) | 0.0159 | -0.115 |
| DENND4C_Q5VZ89_1113_TCMSESTWNPEHR (UniProt Q5VZ89) | 0.116 | 0.024 |
| DDX17_Q92841_166+199_GGDVCPKPVFAFHHANFPQYVMDVLMDQHFTEPTPIQCQGFPLALSGR (UniProt Q92841) | -0.612 | -0.604 |
| DGKZ_Q13574_265_SGLQHLAPPPPTPGAPCSESER (UniProt Q13574) | 0.058 | -0.108 |
| DDX41_Q9UJV9_427_MVYLLECLQK (UniProt Q9UJV9) | 0.0639 | 0.0704 |
| DENR_O43583_132_VCGLATFEIDLK (UniProt O43583) | 0.404 | 0.391 |
| DDX6_P26196_341_LQINQSIIFCNSSQR (UniProt P26196) | -0.0622 | 0.121 |
| DENND1C_Q8IV53_781_EEPGALNSPATPTSNCQK (UniProt Q8IV53) | -0.055 | -0.181 |
| DDAH2_O95865_220_AMAVLTDHPYASLTLPDDAAADCLFLRPGLPGVPPFLLHR (UniProt O95865) | 0.162 | 0.157 |
| DDX21_Q9NR30_378_KDSEDNPQTLLFSATCPHWVFNVAK (UniProt Q9NR30) | -0.013 | -0.0568 |
| DDX51_Q8N8A6_253_GGYRPSDLCVSAPTGSGK (UniProt Q8N8A6) | 0.12 | 0.0522 |
| DDX58_O95786_869_QNCSHDWGIHVK (UniProt O95786) | -0.117 | -0.055 |
| DDX27_Q96GQ7_316+321_QLAQFCNITTCLAVGGLDVK (UniProt Q96GQ7) | -0.0147 | 0.186 |
| DEPTOR_Q8TB45_102_GIIHHVCDEHK (UniProt Q8TB45) | 0.0822 | -0.181 |
| DGKE_P52429_177_CDFGEFK (UniProt P52429) | -0.0497 | 0.0324 |
| DEF6_Q9H4E7_266+267_GIIPLDAHCCVEVLPDRDGKR (UniProt Q9H4E7) | -0.0276 | 0.00378 |
| DGKA_P23743_253_ALPCEVSTYAK (UniProt P23743) | -0.119 | -0.0402 |
| DDX17_Q92841_584_TTSSANNPNLMYQDECDRR (UniProt Q92841) | 0.144 | 0.00204 |

— the supplement of paper PMC12067093, “Discovery and optimisation of a covalent ligand for TRIM25 and its application to targeted protein ubiquitination” (Chemical Science, 2025)
